Where two headings read alike, the source gives them in different places.

Experimental findings from paper PMC7385626 (Scientific Reports, 2020) are described below.

Holding throughout (test): BrdU Cell Proliferation Assay (BCPA)
The test system of data set [1] is HeLa. The format is cell-based. As to conditions: IC50 of normal cells (Vero) divided by IC50 of HeLa. From the text:
(§1) The antiproliferative activities of Ag(I) molecules and the starting molecules of the parent molecules, N-bishydeten and [Ag(CN)2]^− compound, on cells, were monitored utilizing by the BrdU Cell Proliferation Assay (BCPA) (Fig. 6).
(§2) The antiproliferative activity of the 2, 3, 4, [Ag(CN)2]^− and 5FU against various cell lines (HeLa ATCC CCL-2, C6 cells ATCC CCL-107, HT29 ATCC HTB-38, and Vero ATCC CCL-81) were preserved and maintained in Dulbecco’s modified eagle’s medium, supplemented with %2 antibiotic (Streptomycin-Penicillin) solution and 10% fetal bovine serum.
(§3) The cell suspension including 5×10^3 cells in 100 µL was supplied into the well cell plates (96-well cell). The therapies of these cells with 2, 3, 4 and [Ag(CN)2]^− in DMSO (max 0.1% DMSO) and 5-Florouracil (5 FU) molecule in DMSO (max 0.1% DMSO) separately at concentration 0.25, 0.50, 1.00, 1.50, 2.00, 2.50, 3.75, and 5.00 µg/mL were carried out. The last volume was adapted to 200 µL by mixture and DMEM and also incubated for 24 h at 37°C with 5% CO2. The antiproliferative activities of the 2, 3, 4 and [Ag(CN)2]^− were determined with using BrdU Cell proliferation ELISA Kit conforming to manufacturer’s assay.
(§4) IC50 values the concentration of a factor which required for other method of in vitro.

The subject of data set [2] is C6. The data set is classed as cell-based.
Excerpt: as §1, §2, §3, §4

For data set [3], the system named is HT29. The data set is classed as cell-based, human.
Excerpt: as §1, §2, §3, §4

`O=c1[nH]cc(F)c(=O)[nH]1` [5FU, 5-fluorouracil, reference compound]: in data set [1], the “Tumor specificity index HeLa” value amounted to 0.94. Besides, the “Tumor specificity index C6” value in data set [2] (IC50 of normal cells (Vero) divided by IC50 of C6) came to 1.19. Besides, the “Tumor specificity index HT29” value in data set [3] (IC50 of normal cells (Vero) divided by IC50 of HT29) amounted to 1.00.

As to “[Cd(N-bishydeten)]4[Ag(CN)2]8[Ag(CN)]2 [Complex 4]”, in data set [2], the “Tumor specificity index C6” value is given as 1.05. The “Tumor specificity index HT29” value in data set [3] is 1.31.

In the case of [Cu(N-bishydeten)Ag3(CN)5] [Complex 2], the “Tumor specificity index C6” value in data set [2] came to 2.96. In addition, the “Tumor specificity index HT29” value in data set [3] is listed as 3.23.

In the case of [Zn(N-bishydeten)Ag3(CN)5] [Complex 3], the “Tumor specificity index C6” value in data set [2] stood at 0.92. Besides, the “Tumor specificity index HT29” value in data set [3] is recorded as 1.29.
